This passage reports binding results from patent US20110028695A1 (published 2011).

These are yes or no findings as the source states them, for the method shown. Some binding calls cover weakened binding; strength is not graded here.

This experiment addresses HER2 on SKBR3 cells (human, UniProt P04626 23-1255). The experiment in a line: flow cytometry on SKBR3 cells, periplasmic extract, anti-myc detection. A general note: A flow cytometer gives signals particle by particle.

B1: 2A3 (VHH)
VHH: EVQLVESGGGLVQAGGSLNLSCVASGIPFSTRTMAWYRQAPGKPRDWVATIRNGAPVYADSVKGRFTVSRDNAKNTLYLQMNSLKPEDTATYLCRDVNGDIWGQGTQVTVSS
Consider B1, for which the binding result is on record as “binds”.
